Data: article PMC5099689
No constants are given. Whether binding was seen depends on the method and setting. In cells and extracts the contact can be indirect.

Sequences of proteins named here, by UniProt entry; tags and fusion partners are left off. Residues count along the entry.
UniProt Q06749, residues 28-367: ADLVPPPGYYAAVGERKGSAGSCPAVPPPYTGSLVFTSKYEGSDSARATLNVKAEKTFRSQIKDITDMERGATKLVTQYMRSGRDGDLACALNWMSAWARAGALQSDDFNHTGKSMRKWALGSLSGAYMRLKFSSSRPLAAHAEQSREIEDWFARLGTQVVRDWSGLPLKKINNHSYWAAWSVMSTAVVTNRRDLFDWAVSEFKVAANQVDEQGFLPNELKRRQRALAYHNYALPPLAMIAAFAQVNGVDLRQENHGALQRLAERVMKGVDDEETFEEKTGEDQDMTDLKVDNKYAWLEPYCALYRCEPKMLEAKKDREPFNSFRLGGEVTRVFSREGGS
UniProt Q51371, residues 36-543: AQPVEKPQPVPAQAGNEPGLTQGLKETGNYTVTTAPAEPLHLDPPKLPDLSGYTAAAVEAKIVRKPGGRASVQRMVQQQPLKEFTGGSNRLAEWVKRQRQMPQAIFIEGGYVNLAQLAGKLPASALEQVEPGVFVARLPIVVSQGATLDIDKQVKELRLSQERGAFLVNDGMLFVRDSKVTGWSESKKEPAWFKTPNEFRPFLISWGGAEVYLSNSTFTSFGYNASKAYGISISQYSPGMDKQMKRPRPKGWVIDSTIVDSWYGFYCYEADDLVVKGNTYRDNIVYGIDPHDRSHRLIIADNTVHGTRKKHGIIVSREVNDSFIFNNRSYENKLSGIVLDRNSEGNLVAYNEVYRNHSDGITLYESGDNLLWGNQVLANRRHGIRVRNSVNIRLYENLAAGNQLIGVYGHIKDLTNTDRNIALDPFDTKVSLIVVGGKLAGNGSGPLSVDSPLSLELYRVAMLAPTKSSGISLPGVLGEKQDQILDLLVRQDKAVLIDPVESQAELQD

Each molecule was assayed against hexahistidine-tagged AlgL (P. aeruginosa) (UniProt Q06749) (assay: pull-down; his-tagged AlgL purified from envelope fractions solubilized with 0.2% Triton X-100 (100 mM phosphate buffer, 150 mM NaCl, 5 mM imidazole, 5 mM EDTA, 10% glycerol) on cOmplete His-Tag Purification Resin, 1 h on ice, native conditions; four washes; eluted with 400 mM imidazole; eluted fractions immunoblotted with anti-Alg44, -AlgK, -AlgG, -AlgX; strains grown on PIA with 0.05% arabinose for 72 h at 37 °C).

| Molecule | binding |
| --- | --- |
| AlgG (from UniProt Q51371 36-543) (enzyme) | no binding |
| AlgK (protein, UniProt P96956 28-475) CAGLPDQRLAQEALERGDLATAQSNYQALAAMGYADAQVGLADMQVASGDSAQQAKAEKLYREAAQTSPRARARLGKWLAAKPGASDAEHREAERLLSQAFEQGEDSALVPLIVLYLQYPQSWPEIDPQQRIDQWRARGLPQADLAQIILYRTQGTYAQHLGEIEQVCQRWLRRMDVCWYELATVYQMQGNAEKQKVLLEQLRAAYKAGRVPGERVDSVAGVLADGELGQPDPQTAQALLEEIAPSYPAAWVSLAKLLYDYPDQGDLEKMLGYLKNAQDAAQPRAELLLGRLYYDGKWAPQDPRKAERHLLKAAASEPQANYYLGQIYRRGFLGKVYPQKAVDHLILAARAGQASADMALAQLWSQGRGIQPNRVNAYVFGQLAVQQQVPQASDLLGQIEAQLPPAERSQAQQLLKREQQSRGNNWQATVSLLQSQDSPINEEEPESL | no binding |
| Alg44 (protein, UniProt Q9HY69 1-389) MNTAVNVNVVHESEAQRQFARVKLPARIRYIGANREGVDARLLDLSAGGFAFTASGAPIQPGDLYKGKLLFQVDSISFSLEVEFQVRSVDPASRRVGCEFQNLKPREVAALRYLITSYLAGEVIGVGDMLNTLQRENFTKARKQGGGNGGMGFFGRVRAVTLSTAIFVVGVGAFAFILNQMYNLYFVTHADSGVVSVPNQQITMPREGTVQSLLGPNAEVAKGAPIATFSANLLDMLKGNLTEEQLNPGNIEKLFGHQMKGTLTSPCDCRVVQQLVADGQYANKGQVIFTLAPRDSVASIEARFPYRNAAELAPGTRVNFQVAGDGVNRSGRIVNTAPVDGDLSSEIRVQIQPDQPLDAQYAGRPAEVSIGGLPGRTLLNKAVTLATAR | no binding |
